Assay results reported in patent US10513513B2, “Salts of quinazoline derivative or crystals thereof, and the process for producing thereof” (Shionogi & Co., Ltd., priority 2015, dated 2019).
Counter-ions that a name gives are not always drawn. Some of these results come from one statement about several compounds together.

Experiments:
[1] = Light exposure test (photostability); assay type: physicochemical; details: light exposed sample minus dark control
Source text: The photostability test is one of the methods for measuring chemical or physicochemical changes of an active pharmaceutical ingredient or a pharmaceutical preparation caused by light exposure to evaluate properties of a sample with respect to light. In the photostability test, a sample such as an active pharmaceutical ingredient or a pharmaceutical preparation is irradiated with light at a specified output for a certain period of time. Properties of the sample with respect to light can be evaluated by analyzing the impurities and analogous substances, crystal form, color difference, and the like of the sample by scientific techniques (such as high performance liquid chromatography, X-ray crystal diffraction, and colorimetry) when a specified total illuminance is reached. In order to verify that a specified amount of light exposure is attained, the amount of light exposure is managed using a radiometer or a luminometer, and a test is carried out using an actinometric system.
(Photostability Measurement)
A photostability test was performed using a photostability tester (model LTL200A5-15WCD) by Nagano Science. A D65 lamp was used as an irradiation source of light, and light was irradiated to a total illuminance of about 1.2 million 1×·hr under 4000 lx·hr conditions.
The quality evaluations of the respective crystals were carried out using HPLC (Method B).

[2] = Test of solubility in organic solvent; assay type: physicochemical; details: 2-propanol, acetone, ethyl acetate; 22° C., 4 hours
Method: (Test of Solubility in Organic Solvent)
The monohydrochloride crystal Form I, monohydrochloride crystal Form V, and free base crystals of Compound (I) were each suspended in 2-propanol, acetone, and ethyl acetate, and stirred at 22° C. for 4 hours, and the concentrations of supernatants were measured (HPLC: Method B).

Row | Compound | E isomer (Retention time 38 minutes), Increased amount ([1]; listed as monohydrochloride crystal Form II) [area %] | Concentration in various organic solvents (summary) [2] [% by weight] | E isomer (Retention time 38 minutes), Increased amount ([1]; listed as monohydrochloride crystal Form I) [area %] | E isomer (Retention time 38 minutes), Increased amount [1] [area %]
1 | CC#C/C(=N\OC[C@H]1COCCN1)c1ccc2ncnc(Nc3ccc(OCc4cccc(F)c4)c(Cl)c3)c2c1 [Monohydrochloride crystal Form II] | ≤ 3.8 | – | – | –
2 | CC#C/C(=N\OC[C@H]1COCCN1)c1ccc2ncnc(Nc3ccc(OCc4cccc(F)c4)c(Cl)c3)c2c1 [Monohydrochloride crystal Form I] | – | ≤ 0.1 | ≤ 3.8 | –
3 | CC#C/C(=N\OC[C@H]1COCCN1)c1ccc2ncnc(Nc3ccc(OCc4cccc(F)c4)c(Cl)c3)c2c1 [Monohydrochloride crystal Form VI] | – | – | – | ≤ 3.8
4 | CC#C/C(=N\OC[C@H]1COCCN1)c1ccc2ncnc(Nc3ccc(OCc4cccc(F)c4)c(Cl)c3)c2c1 [Monohydrochloride crystal Form V] | – | ≤ 0.1 | – | ≤ 3.8
